The source gives many values for each of these; only a part stands here.
Assays:
Type in all cases: cell-based
Conditions in all cases: U-87MG ATCC
[1] = Inhibition of RTK/PI3K/AKT/mTOR signaling in human U87 cells assessed as down regulation of KNL1 gene expression at cytotoxic IC50 measured after 48 hrs relative to control
[2] = Inhibition of RTK/PI3K/AKT/mTOR signaling in human U87 cells assessed as down regulation of ERN1 gene expression at cytotoxic IC50 measured after 48 hrs relative to control
[3] = Inhibition of RTK/PI3K/AKT/mTOR signaling in human U87 cells assessed as down regulation of THADA gene expression at cytotoxic IC50 measured after 48 hrs relative to control
[4] = Inhibition of RTK/PI3K/AKT/mTOR signaling in human U87 cells assessed as down regulation of MAP2K3 gene expression at cytotoxic IC50 measured after 48 hrs relative to control
[5] = Inhibition of RTK/PI3K/AKT/mTOR signaling in human U87 cells assessed as up regulation of SLC45A1 gene expression at cytotoxic IC50 measured after 48 hrs relative to control
[6] = Inhibition of RTK/PI3K/AKT/mTOR signaling in human U87 cells assessed as down regulation of TCF7 gene expression at cytotoxic IC50 measured after 48 hrs relative to control
[7] = Inhibition of RTK/PI3K/AKT/mTOR signaling in human U87 cells assessed as up regulation of oxysterol binding protein like 3 gene expression at cytotoxic IC50 measured after 48 hrs relative to control
[8] = Inhibition of RTK/PI3K/AKT/mTOR signaling in human U87 cells assessed as down regulation of STAU1 gene expression at cytotoxic IC50 measured after 48 hrs relative to control
[9] = Inhibition of RTK/PI3K/AKT/mTOR signaling in human U87 cells assessed as down regulation of HSPA4L gene expression at cytotoxic IC50 measured after 48 hrs relative to control
[10] = Inhibition of RTK/PI3K/AKT/mTOR signaling in human U87 cells assessed as down regulation of ARRDC3 gene expression at cytotoxic IC50 measured after 48 hrs relative to control
[11] = Inhibition of RTK/PI3K/AKT/mTOR signaling in human U87 cells assessed as down regulation of TBX3 gene expression at cytotoxic IC50 measured after 48 hrs relative to control
[12] = Inhibition of RTK/PI3K/AKT/mTOR signaling in human U87 cells assessed as up regulation of NRSN2 gene expression at cytotoxic IC50 measured after 48 hrs relative to control
[13] = Inhibition of RTK/PI3K/AKT/mTOR signaling in human U87 cells assessed as up regulation of TBK1 binding protein 1 gene expression at cytotoxic IC50 measured after 48 hrs relative to control
[14] = Inhibition of RTK/PI3K/AKT/mTOR signaling in human U87 cells assessed as down regulation of KIAA0556 gene expression at cytotoxic IC50 measured after 48 hrs relative to control
[15] = Inhibition of RTK/PI3K/AKT/mTOR signaling in human U87 cells assessed as up regulation of proteolipid protein 2 gene expression at cytotoxic IC50 measured after 48 hrs relative to control
[16] = Inhibition of RTK/PI3K/AKT/mTOR signaling in human U87 cells assessed as up regulation of mannose phosphate isomerase gene expression at cytotoxic IC50 measured after 48 hrs relative to control
[17] = Inhibition of RTK/PI3K/AKT/mTOR signaling in human U87 cells assessed as down regulation of POLR2L gene expression at cytotoxic IC50 measured after 48 hrs relative to control
[18] = Inhibition of RTK/PI3K/AKT/mTOR signaling in human U87 cells assessed as up regulation of small ubiquitin-like modifier 3 gene expression at cytotoxic IC50 measured after 48 hrs relative to control
[19] = Inhibition of RTK/PI3K/AKT/mTOR signaling in human U87 cells assessed as up regulation of SRY-box 9 gene expression at cytotoxic IC50 measured after 48 hrs relative to control
[20] = Inhibition of RTK/PI3K/AKT/mTOR signaling in human U87 cells assessed as down regulation of TPD52L2 gene expression at cytotoxic IC50 measured after 48 hrs relative to control
[21] = Inhibition of RTK/PI3K/AKT/mTOR signaling in human U87 cells assessed as up regulation of protein phosphatase 1 regulatory subunit 13 like gene expression at cytotoxic IC50 measured after 48 hrs relative to control
[22] = Inhibition of RTK/PI3K/AKT/mTOR signaling in human U87 cells assessed as up regulation of MSLN gene expression at cytotoxic IC50 measured after 48 hrs relative to control
[23] = Inhibition of RTK/PI3K/AKT/mTOR signaling in human U87 cells assessed as down regulation of EIF5A2 gene expression at cytotoxic IC50 measured after 48 hrs relative to control
[24] = Inhibition of RTK/PI3K/AKT/mTOR signaling in human U87 cells assessed as up regulation of lipopolysaccharide induced TNF factor gene expression at cytotoxic IC50 measured after 48 hrs relative to control
[25] = Inhibition of RTK/PI3K/AKT/mTOR signaling in human U87 cells assessed as up regulation of S100 calcium binding protein A6 gene expression at cytotoxic IC50 measured after 48 hrs relative to control
[26] = Inhibition of RTK/PI3K/AKT/mTOR signaling in human U87 cells assessed as up regulation of tripartite motif containing 72 gene expression at cytotoxic IC50 measured after 48 hrs relative to control
[27] = Inhibition of RTK/PI3K/AKT/mTOR signaling in human U87 cells assessed as down regulation of CMTR2 gene expression at cytotoxic IC50 measured after 48 hrs relative to control
[28] = Inhibition of RTK/PI3K/AKT/mTOR signaling in human U87 cells assessed as down regulation of IL1R1 gene expression at cytotoxic IC50 measured after 48 hrs relative to control
[29] = Inhibition of RTK/PI3K/AKT/mTOR signaling in human U87 cells assessed as down regulation of RPA2 gene expression at cytotoxic IC50 measured after 48 hrs relative to control
[30] = Inhibition of RTK/PI3K/AKT/mTOR signaling in human U87 cells assessed as up regulation of haloacid dehalogenase like hydrolase domain containing 5 gene expression at cytotoxic IC50 measured after 48 hrs relative to control
[31] = Inhibition of RTK/PI3K/AKT/mTOR signaling in human U87 cells assessed as up regulation of SMAD2 gene expression at cytotoxic IC50 measured after 48 hrs relative to control
[32] = Inhibition of RTK/PI3K/AKT/mTOR signaling in human U87 cells assessed as down regulation of ELMO2 gene expression at cytotoxic IC50 measured after 48 hrs relative to control

CC(=O)C(=NNc1ccccc1C#N)C(C)=O
log2FC [1]: -1.11
log2FC [2]: -0.653
log2FC [3]: -0.658
log2FC [4]: -1.2
log2FC [5]: 2.82
log2FC [6]: -0.982
log2FC [7]: 1.02
log2FC [8]: -0.552
log2FC [9]: -2.17
log2FC [10]: -1.76
log2FC [11]: -2.35
log2FC [12]: 3.25
log2FC [13]: 1.02
log2FC [14]: -0.638
log2FC [15]: 0.948
log2FC [16]: 1.32
log2FC [17]: -1.24
log2FC [18]: 1.12
log2FC [19]: 0.944
log2FC [20]: -0.589
log2FC [21]: 1.03
log2FC [22]: 1.78
log2FC [23]: -1.35
log2FC [24]: 0.77
log2FC [25]: 1.54
log2FC [26]: 0.924
log2FC [27]: -0.821
log2FC [28]: -1.25
log2FC [29]: -0.681
log2FC [30]: 1.03
log2FC [31]: 0.475
log2FC [32]: -0.652
